From PubChem BioAssay AID1347426 (Functional Genomics Laboratory (NCATS/FGL), 2020)
About 1,400 (4.5%) of roughly 31,000 sequences were called active.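 Rule for the calls: active = median seed-adjusted z-score above 1 or below -1; inactive = the rest.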 This is one part of the list.

Assay: Novel Modifiers of Survival Motor Neuron (SMN) Protein: Gene Identification via Genome-wide siRNA Screen;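 note: luminescence tracks full-length SMN protein made from the SMN2 reporter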
Conditions: HEK293T SMN2-luciferase reporter, siRNA knockdown, 72 h; actives lie on both sides
Summary of the method: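 Genome-wide siRNA screen (10418 genes, 3 siRNAs each, 1 pmol per well) by reverse transfection in HEK293T cells stably carrying an SMN2-luciferase reporter; luminescence after 72 hours, normalized to negative-control siRNA, log10-transformed, MAD-scored.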
In the case of GAGGCAAUAUGAAACGAGUTT against CKMT2, the median seed-adjusted z-score is reported as inactive: -0.862.
In the case of UGACGUAGGCAUAAACGGATT against PCDH11Y, the median seed-adjusted z-score is reported as inactive: 0.186.
In the case of GGAAUUUCGGCACUCAGAATT against CHIT1, the median seed-adjusted z-score is reported as inactive: -0.578.
With GGACCUGCAACAUUUCUGATT against PGLYRP4 the median seed-adjusted z-score was inactive: 0.13.
With GCACUGCGAAGGUUCAGAATT against PPP1R3B the median seed-adjusted z-score was inactive: -0.298.
In the case of CAUCAGAGCUGGAUCUAGATT against PDGFRA, the median seed-adjusted z-score is reported as inactive: 0.0399.
In the case of GGAUGAUAUCAACUGCUAUTT against ACVR2A, the median seed-adjusted z-score is reported as inactive: -0.22.
In the case of CCAUCACGGUGAUUGCUGATT against CPNE4, the median seed-adjusted z-score is reported as inactive: -0.0933.
For AGGUAGUAGUGAGACGUGATT against OSCAR, the median seed-adjusted z-score was inactive: 0.114.
In the case of GGACUUCACGAAAAGACAATT against UBE2J2, the median seed-adjusted z-score is reported as inactive: -0.341.
For GCCGGUAUGUCGCAAAAGATT against FLJ90650, the median seed-adjusted z-score was inactive: 0.427.
In the case of GGUUCUUGAUGCCUAUGAATT against WARS, the median seed-adjusted z-score is reported as inactive: -0.724.
In the case of GUUGAUAAGUUUUACCGAUTT against ADAM19, the median seed-adjusted z-score is reported as inactive: 0.0996.
In the case of CCUUCAAUCUUCCUAGUGATT against BAT3, the median seed-adjusted z-score is reported as inactive: 0.567.
In the case of GCAAGGACCGAAUUCUUAUTT against TALDO1, the median seed-adjusted z-score is reported as inactive: 0.131.
With GUAUGGAGCUAUCAAAGAATT against PRPSAP2 the median seed-adjusted z-score was inactive: 0.329.
For CCAUUUACAUCGUCACGGATT against SRC, the median seed-adjusted z-score was inactive: -0.0246.
For GGACUUUGGUGUGAAUGAATT against ANXA1, the median seed-adjusted z-score was inactive: -0.114.
For CAAGGACUGUUUCCUCAAATT against FSTL4, the median seed-adjusted z-score was inactive: 0.429.
In the case of GCAGCUAUCUCUGUACAGATT against MAPK8IP3, the median seed-adjusted z-score is reported as inactive: 0.734.
In the case of CAGUGAAGAUUAGACCGAATT against SYNJ2, the median seed-adjusted z-score is reported as inactive: 0.0202.
In the case of CCAUCGACUUCUUCGCCUUTT against WFS1, the median seed-adjusted z-score is reported as inactive: 0.696.
In the case of GCCCAAGCAGAUUACCAUATT against ARHGAP17, the median seed-adjusted z-score is reported as inactive: -0.336.
With ACUCCACGCUGAUUCAGCATT against ZNF205 the median seed-adjusted z-score was inactive: -0.468.
In the case of GGUCAGCAGCUGUAUGAGATT against GCK, the median seed-adjusted z-score is reported as inactive: -0.286.
In the case of CAACAUCACAAAUCCAGUUTT against B3GALNT2, the median seed-adjusted z-score is reported as inactive: -0.227.
In the case of CCCAAGAACCAUACCGUAATT against MTMR12, the median seed-adjusted z-score is reported as inactive: 0.419.
For GAAUAAACAUCUCCGUGAATT against ANAPC11, the median seed-adjusted z-score was inactive: -0.581.
With GGGACUACCUUACAGUCAATT against PPP2R2C the median seed-adjusted z-score was inactive: -0.87.
In the case of CUGAGAGACUUGGAAUAUATT against TRIM26, the median seed-adjusted z-score is reported as inactive: 0.
With GGAUCUUUCAUAUUGUGGATT against MRPS28 the median seed-adjusted z-score was inactive: -0.022.
With GCACCCGGUUUAUCAGUAATT against CCNF the median seed-adjusted z-score was inactive: -0.435.
In the case of GCAUAUUACCACUCCGUUUTT against RFX6, the median seed-adjusted z-score is reported as inactive: 0.119.
For AGAGAUUAAGAGUAACCAATT against SLC7A3, the median seed-adjusted z-score was inactive: -0.537.
For GCCUUACAGUUAGAGUAUUTT against BRAP, the median seed-adjusted z-score was inactive: 0.267.
With GGUCAGAGAGUGGUAUUCATT against GANC the median seed-adjusted z-score was inactive: 0.799.
With CGCCUCCACCUGAAAUUCATT against BPIL1 the median seed-adjusted z-score was inactive: 0.261.
In the case of GCAGUACAAGUAUCCACAATT against NPY2R, the median seed-adjusted z-score is reported as inactive: 0.121.
In the case of CUCUGAACCAAAUCGUUUATT against DPP8, the median seed-adjusted z-score is reported as inactive: -0.0209.
For GAUUAAGGGUGCAACUAAATT against EIF2AK1, the median seed-adjusted z-score was inactive: -0.546.
In the case of GGAAAGGACCUCUACCGUUTT against PRDM1, the median seed-adjusted z-score is reported as inactive: -0.16.
With GUGAUAGUAUGGAUGCUCATT against P2RY14 the median seed-adjusted z-score was inactive: -0.0536.
In the case of CAAUCUGAGUGAGAGACAATT against HOXB9, the median seed-adjusted z-score is reported as inactive: 0.717.
For GAAAGAGGCAGGGACCUAATT against CCR10, the median seed-adjusted z-score was inactive: -0.129.
With CGAGCUACAGGAACAUCUUTT against LSS the median seed-adjusted z-score was inactive: -0.302.
For AUAGUUGACUAUUCUGAAATT against CCL18, the median seed-adjusted z-score was inactive: 0.169.
In the case of AGGCAUUUUUGAAUGAGAATT against DDC, the median seed-adjusted z-score is reported as inactive: 0.395.
In the case of GCACGGAAUUUGAACAGUATT against SOX17, the median seed-adjusted z-score is reported as inactive: -0.46.
With GGCCUUUAGCAAUAGUUCATT against ZNF583 the median seed-adjusted z-score was inactive: -0.225.
In the case of CCUUCUAAUUCGCAAGGUATT against REL, the median seed-adjusted z-score is reported as inactive: -0.358.
For CCUCGUAUCAAAACAUUAATT against BIRC2, the median seed-adjusted z-score was inactive: 0.336.
In the case of GGCUCUUAAUAUUCGAAUATT against GPR22, the median seed-adjusted z-score is reported as inactive: 0.705.
In the case of GACUUACUCGAGAACAAGATT against SF1, the median seed-adjusted z-score is reported as inactive: 0.795.
In the case of GAGCUGCAUGAAUACGUUUTT against EXT1, the median seed-adjusted z-score is reported as inactive: 0.489.
In the case of UGACUCUACUCAUUAGAUUTT against MAS1L, the median seed-adjusted z-score is reported as inactive: 0.0585.
With GGAUGACAUCUCAGAAUCATT against PNCK the median seed-adjusted z-score was inactive: 0.
In the case of AGACCUGCCUAAUGGUUCUTT against CAV2, the median seed-adjusted z-score is reported as inactive: -0.00895.
In the case of GGAUCAUGCUAAAAGGAGATT against SNRPE, the median seed-adjusted z-score is reported as active: -2.77.
For AACCAUAGGCUUCAAUGUATT against ARF5, the median seed-adjusted z-score was inactive: -0.507.
In the case of CGACGACAGCUACUGGUUUTT against NUDT1, the median seed-adjusted z-score is reported as inactive: -0.175.
In the case of CGAGGACACCUCUUACGAUTT against NRF1, the median seed-adjusted z-score is reported as inactive: 0.608.
With GAUUGCACGCUAUAUUAAATT against TEAD3 the median seed-adjusted z-score was inactive: 0.
With ACAAGAACCCUGACAAUAATT against DNAJB8 the median seed-adjusted z-score was active: -1.09.
For GGAUGCCUGGUUCCACUUUTT against TRPV3, the median seed-adjusted z-score was inactive: -0.228.
In the case of GGCUGAAAAUGACGACUAUTT against ZDHHC7, the median seed-adjusted z-score is reported as inactive: 0.0962.
For CCGCAGACUGAGUUCCUCATT against TRIM72, the median seed-adjusted z-score was inactive: -0.0122.
In the case of AAGUCAUUAACACACUUUATT against DEAF1, the median seed-adjusted z-score is reported as inactive: 0.0416.
For GAGAGCAAGUUCUACAAGATT against CSNK1E, the median seed-adjusted z-score was inactive: -0.796.
For AGUUAAUCCUCUCAUUUCUTT against GHRH, the median seed-adjusted z-score was inactive: -0.16.
With GGACCUCCGUUGACAGAUUTT against PHF12 the median seed-adjusted z-score was inactive: 0.784.
With GGACCUCAGCGAUAAUGCATT against RTN4R the median seed-adjusted z-score was inactive: -0.536.
In the case of GGUGAAUCCUGUGACACUATT against MYO19, the median seed-adjusted z-score is reported as inactive: 0.0987.
With CCGUAUUGGUCAUCAUUGATT against PSMD7 the median seed-adjusted z-score was inactive: 0.0973.
For GCUAAUCACUAGAUUAGAATT against LDB2, the median seed-adjusted z-score was inactive: -0.0847.
In the case of UGAAAAUUGUAGCCUGUGATT against GTF2A2, the median seed-adjusted z-score is reported as inactive: 0.0457.
With GGUGCUUCUAGGUUACCCATT against NUP210 the median seed-adjusted z-score was inactive: 0.0904.
With GACGACUCGUCAUAAGUUUTT against PLB1 the median seed-adjusted z-score was inactive: -0.118.
With GGACAAUAUGUGACCAGAATT against CD163L1 the median seed-adjusted z-score was inactive: 0.353.
In the case of CGGUAUGCCUGUGACGACATT against FCER2, the median seed-adjusted z-score is reported as active: -1.75.
With CCACCUCUCUCGAUCCCUATT against RBM4 the median seed-adjusted z-score was inactive: 0.0148.
In the case of GAUUUGAUCAGGAGGAUAATT against ANP32E, the median seed-adjusted z-score is reported as inactive: -0.0648.
For UGUCCAAUCUAGAUCCCAATT against SLC7A5, the median seed-adjusted z-score was inactive: 0.00397.
With ACCAUAGCCUCUCACCCUATT against RASA4 the median seed-adjusted z-score was active: -1.11.
In the case of ACUGGGCUCUCUUUACCUATT against DBNL, the median seed-adjusted z-score is reported as inactive: 0.398.
In the case of CAUUUGUGGGAGAAGAUAATT against STK17B, the median seed-adjusted z-score is reported as inactive: -0.971.
For GAAUCGCAGUUAUCGCAGATT against CANT1, the median seed-adjusted z-score was inactive: 0.
In the case of GCAAUGGAGUGAUCGUACATT against LY75, the median seed-adjusted z-score is reported as inactive: -0.0919.
With GGAUGAAAACUUUAAGUCUTT against ROR1 the median seed-adjusted z-score was inactive: -0.0044.
In the case of UGUUCAGCCUUGACUCAAATT against RHOU, the median seed-adjusted z-score is reported as active: -1.44.
With CCACUAUGCUUUACGCCCATT against ARSI the median seed-adjusted z-score was inactive: 0.
With GGCAAGGUAUUUAAUCAGATT against ZNF28 the median seed-adjusted z-score was inactive: 0.814.
With GAAGGACCCUUACACUCUUTT against TCF4 the median seed-adjusted z-score was inactive: 0.107.
In the case of CGCUACUACUACGACAAGATT against FEV, the median seed-adjusted z-score is reported as inactive: 0.174.
In the case of GGGAAACUGUACAUCGUGATT against TSSK6, the median seed-adjusted z-score is reported as inactive: -0.408.
With CUACCUAACUAAGAAGUUUTT against CNDP2 the median seed-adjusted z-score was inactive: 0.43.
For GGUUAUGCCUUGCUGCAUUTT against ATRN, the median seed-adjusted z-score was inactive: -0.28.
For GUGUGGUGUUUAGUGGAUATT against TNFRSF14, the median seed-adjusted z-score was inactive: 0.
With CCGCUGUUAUCAUUACCAUTT against KIR2DL5B the median seed-adjusted z-score was active: 1.72.
For GCAAGGCUAUCUUCUUCAATT against KCNA7, the median seed-adjusted z-score was inactive: 0.394.
With CGAACAAGACCGUCCAUCUTT against SIGLEC9 the median seed-adjusted z-score was inactive: 0.
For GGAUUAACCUGGACAACAATT against PRELP, the median seed-adjusted z-score was inactive: -0.0579.
With GGUUUAUGCUGGAUUGAAUTT against RRH the median seed-adjusted z-score was inactive: -0.0112.
For AGUUUAAUCUCAAGGGCAATT against ZNF710, the median seed-adjusted z-score was inactive: 0.
With GCUUCUAUAAGUACUAGUATT against MTO1 the median seed-adjusted z-score was inactive: -0.0252.
With AGAACAAAGUGGUGGUGAUTT against DHRS7C the median seed-adjusted z-score was inactive: -0.398.
For GGUGCUUUCCCAAGACUGUTT against MAP3K10, the median seed-adjusted z-score was inactive: 0.201.
In the case of GCUUCGUCAGGUGUAAGAATT against WNT5B, the median seed-adjusted z-score is reported as inactive: 0.72.
In the case of CUAUGAAAGAGGUUCUUUUTT against MDM2, the median seed-adjusted z-score is reported as inactive: 0.258.
